Reference: the supplement of paper PMC12823440, “Inhibitors supercharge kinase turnover through native proteolytic circuits” (Nature, 2025)
This is one part of the list. The calls rarely recur for the same compound in another form.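 Kinases were expressed as nanoluciferase fusions in K562 cells and luminescence was read every 4 h between 2 and 18 h as percent of control, DMSO set to 100% and a positive control to 0%. A time point counts as decreased when the signal drops significantly (2 sigma). The hit call is the authors' own, does not follow from the count of time points alone, and its rule is not shown.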

Chains of the proteins cited; added tags and fusions are not shown. Lines headed by an entry give the natural chain unless they say otherwise; changes in a name come on top.
UniProt Q9UBF8: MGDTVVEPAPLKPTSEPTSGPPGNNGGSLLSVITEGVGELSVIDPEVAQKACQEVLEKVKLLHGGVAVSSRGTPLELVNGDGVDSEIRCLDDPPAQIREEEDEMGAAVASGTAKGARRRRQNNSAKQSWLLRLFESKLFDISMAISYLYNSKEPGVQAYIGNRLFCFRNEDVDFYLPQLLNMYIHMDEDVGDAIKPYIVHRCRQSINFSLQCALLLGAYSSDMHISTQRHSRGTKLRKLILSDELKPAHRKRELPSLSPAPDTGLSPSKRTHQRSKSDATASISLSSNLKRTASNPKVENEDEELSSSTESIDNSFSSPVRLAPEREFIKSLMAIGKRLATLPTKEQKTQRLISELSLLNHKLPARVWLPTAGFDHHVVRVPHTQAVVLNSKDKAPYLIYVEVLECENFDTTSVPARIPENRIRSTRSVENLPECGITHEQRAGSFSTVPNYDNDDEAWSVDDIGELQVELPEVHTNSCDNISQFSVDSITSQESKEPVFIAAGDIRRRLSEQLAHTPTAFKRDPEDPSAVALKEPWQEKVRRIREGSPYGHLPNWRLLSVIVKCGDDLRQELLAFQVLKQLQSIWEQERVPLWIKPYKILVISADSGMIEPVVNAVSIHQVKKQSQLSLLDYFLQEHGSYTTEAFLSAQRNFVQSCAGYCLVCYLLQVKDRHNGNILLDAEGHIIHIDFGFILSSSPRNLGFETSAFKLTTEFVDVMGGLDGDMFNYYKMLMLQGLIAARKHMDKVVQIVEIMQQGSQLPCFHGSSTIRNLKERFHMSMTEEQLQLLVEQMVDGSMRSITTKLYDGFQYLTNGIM
UniProt P53350, whole entry: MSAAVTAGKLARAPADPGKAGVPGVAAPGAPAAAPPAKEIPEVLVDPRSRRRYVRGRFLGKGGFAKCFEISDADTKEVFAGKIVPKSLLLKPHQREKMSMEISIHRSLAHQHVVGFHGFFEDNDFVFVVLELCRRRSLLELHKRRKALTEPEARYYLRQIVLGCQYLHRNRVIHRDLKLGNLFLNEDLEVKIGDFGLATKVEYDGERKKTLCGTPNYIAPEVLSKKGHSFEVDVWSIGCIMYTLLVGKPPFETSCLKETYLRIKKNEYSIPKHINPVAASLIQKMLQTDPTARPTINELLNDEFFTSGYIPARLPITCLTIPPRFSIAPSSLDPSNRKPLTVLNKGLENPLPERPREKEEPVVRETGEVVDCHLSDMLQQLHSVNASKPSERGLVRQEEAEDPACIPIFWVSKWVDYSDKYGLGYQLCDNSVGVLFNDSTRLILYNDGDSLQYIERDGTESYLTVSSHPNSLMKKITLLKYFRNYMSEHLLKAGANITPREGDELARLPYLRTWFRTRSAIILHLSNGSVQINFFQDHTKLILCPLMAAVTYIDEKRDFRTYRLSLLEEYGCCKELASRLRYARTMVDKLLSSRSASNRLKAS
UniProt P07949, whole entry, looked up: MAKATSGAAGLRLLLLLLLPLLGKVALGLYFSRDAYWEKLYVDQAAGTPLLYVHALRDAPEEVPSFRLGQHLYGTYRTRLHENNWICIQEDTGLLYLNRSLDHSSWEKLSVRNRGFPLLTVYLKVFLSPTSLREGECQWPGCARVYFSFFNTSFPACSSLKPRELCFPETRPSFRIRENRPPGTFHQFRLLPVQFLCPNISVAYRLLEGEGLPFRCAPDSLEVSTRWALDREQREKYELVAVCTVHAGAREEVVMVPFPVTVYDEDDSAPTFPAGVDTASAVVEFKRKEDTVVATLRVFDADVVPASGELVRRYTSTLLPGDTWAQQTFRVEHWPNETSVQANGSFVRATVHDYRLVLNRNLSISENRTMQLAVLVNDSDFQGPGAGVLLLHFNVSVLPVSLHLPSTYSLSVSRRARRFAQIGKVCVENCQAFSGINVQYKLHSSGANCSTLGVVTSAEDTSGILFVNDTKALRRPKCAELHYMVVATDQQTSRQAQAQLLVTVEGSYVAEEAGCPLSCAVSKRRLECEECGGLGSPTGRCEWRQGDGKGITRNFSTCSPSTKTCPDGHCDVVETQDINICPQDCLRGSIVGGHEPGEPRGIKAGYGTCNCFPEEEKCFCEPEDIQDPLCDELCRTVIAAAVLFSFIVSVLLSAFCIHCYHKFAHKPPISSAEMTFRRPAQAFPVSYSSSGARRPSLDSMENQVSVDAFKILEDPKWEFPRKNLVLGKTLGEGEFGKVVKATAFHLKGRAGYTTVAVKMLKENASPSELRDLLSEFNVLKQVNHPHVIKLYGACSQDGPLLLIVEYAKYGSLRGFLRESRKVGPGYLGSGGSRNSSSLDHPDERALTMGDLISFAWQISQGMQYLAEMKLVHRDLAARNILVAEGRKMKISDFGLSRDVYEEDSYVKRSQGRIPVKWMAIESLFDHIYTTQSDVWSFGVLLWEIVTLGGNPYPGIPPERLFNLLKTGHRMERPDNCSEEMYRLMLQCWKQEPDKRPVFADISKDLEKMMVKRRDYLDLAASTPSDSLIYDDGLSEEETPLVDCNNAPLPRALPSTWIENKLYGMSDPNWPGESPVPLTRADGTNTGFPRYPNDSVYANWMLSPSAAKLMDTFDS
UniProt P07949, whole entry M918T, looked up: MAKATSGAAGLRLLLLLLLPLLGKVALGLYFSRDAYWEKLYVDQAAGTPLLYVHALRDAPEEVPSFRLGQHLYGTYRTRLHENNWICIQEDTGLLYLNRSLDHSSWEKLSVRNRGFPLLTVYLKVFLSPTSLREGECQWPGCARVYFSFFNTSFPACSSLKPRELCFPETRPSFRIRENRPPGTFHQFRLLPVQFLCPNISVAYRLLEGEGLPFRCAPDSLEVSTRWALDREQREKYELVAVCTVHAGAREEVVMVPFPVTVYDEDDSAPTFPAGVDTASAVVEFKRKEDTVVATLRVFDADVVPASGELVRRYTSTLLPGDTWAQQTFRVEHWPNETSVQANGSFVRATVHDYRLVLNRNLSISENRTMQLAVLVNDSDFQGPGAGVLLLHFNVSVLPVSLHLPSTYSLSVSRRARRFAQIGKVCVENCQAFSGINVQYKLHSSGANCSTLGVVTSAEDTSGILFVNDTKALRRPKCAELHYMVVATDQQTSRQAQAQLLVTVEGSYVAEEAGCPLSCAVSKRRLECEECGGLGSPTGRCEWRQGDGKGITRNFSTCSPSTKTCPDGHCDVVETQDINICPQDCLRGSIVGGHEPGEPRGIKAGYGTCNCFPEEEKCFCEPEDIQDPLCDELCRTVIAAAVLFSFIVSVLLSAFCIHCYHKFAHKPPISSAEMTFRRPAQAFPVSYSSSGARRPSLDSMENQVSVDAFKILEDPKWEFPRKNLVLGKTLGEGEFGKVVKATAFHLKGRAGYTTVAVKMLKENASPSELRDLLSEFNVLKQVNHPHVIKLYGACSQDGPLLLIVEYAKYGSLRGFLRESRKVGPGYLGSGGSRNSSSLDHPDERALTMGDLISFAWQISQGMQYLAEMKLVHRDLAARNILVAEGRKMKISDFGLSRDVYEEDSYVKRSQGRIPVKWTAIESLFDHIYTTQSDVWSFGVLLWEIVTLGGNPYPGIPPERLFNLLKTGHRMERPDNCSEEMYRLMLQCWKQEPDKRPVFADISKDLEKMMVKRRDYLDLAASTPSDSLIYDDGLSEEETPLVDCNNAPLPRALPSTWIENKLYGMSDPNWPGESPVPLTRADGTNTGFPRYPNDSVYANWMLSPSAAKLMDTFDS
UniProt Q9BRS2: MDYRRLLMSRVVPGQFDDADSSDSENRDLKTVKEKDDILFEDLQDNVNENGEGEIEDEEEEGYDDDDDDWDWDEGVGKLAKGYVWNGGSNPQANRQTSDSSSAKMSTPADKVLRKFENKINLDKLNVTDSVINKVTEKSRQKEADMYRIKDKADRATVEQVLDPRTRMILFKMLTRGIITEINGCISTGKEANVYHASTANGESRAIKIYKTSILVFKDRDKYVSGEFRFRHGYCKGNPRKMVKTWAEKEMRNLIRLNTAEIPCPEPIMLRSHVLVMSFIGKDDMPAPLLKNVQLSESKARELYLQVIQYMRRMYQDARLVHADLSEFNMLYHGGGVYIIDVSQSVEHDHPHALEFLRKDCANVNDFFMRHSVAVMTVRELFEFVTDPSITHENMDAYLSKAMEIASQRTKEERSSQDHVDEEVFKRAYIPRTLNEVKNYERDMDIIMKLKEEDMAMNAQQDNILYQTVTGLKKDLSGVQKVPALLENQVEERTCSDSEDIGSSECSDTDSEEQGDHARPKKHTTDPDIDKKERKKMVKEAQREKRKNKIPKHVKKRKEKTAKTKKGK
UniProt Q01974, whole entry: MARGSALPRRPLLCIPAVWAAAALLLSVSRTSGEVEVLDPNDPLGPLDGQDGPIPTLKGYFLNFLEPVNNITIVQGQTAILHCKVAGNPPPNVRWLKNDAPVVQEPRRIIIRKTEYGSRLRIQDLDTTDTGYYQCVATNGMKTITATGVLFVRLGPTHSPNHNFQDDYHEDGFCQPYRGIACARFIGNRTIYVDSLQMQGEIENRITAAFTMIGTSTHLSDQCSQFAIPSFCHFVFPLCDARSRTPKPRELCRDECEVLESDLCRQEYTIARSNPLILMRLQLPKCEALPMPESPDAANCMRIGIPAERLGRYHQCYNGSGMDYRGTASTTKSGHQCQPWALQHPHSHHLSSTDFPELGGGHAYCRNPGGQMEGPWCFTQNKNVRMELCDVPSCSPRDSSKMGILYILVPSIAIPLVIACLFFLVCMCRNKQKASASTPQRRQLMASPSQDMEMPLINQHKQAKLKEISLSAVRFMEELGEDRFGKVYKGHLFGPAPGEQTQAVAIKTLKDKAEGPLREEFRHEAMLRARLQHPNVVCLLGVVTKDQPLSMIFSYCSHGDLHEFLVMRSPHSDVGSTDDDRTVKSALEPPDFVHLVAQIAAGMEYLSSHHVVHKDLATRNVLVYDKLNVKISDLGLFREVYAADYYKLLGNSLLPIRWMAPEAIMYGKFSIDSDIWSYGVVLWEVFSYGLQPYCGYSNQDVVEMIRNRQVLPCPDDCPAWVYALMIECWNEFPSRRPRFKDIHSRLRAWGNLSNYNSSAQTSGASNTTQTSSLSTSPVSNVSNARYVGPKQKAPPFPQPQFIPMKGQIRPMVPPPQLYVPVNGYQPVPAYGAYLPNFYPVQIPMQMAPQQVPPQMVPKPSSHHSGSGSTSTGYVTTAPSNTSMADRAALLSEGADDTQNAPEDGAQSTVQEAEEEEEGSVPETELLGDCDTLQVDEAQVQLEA
UniProt Q15418, whole entry: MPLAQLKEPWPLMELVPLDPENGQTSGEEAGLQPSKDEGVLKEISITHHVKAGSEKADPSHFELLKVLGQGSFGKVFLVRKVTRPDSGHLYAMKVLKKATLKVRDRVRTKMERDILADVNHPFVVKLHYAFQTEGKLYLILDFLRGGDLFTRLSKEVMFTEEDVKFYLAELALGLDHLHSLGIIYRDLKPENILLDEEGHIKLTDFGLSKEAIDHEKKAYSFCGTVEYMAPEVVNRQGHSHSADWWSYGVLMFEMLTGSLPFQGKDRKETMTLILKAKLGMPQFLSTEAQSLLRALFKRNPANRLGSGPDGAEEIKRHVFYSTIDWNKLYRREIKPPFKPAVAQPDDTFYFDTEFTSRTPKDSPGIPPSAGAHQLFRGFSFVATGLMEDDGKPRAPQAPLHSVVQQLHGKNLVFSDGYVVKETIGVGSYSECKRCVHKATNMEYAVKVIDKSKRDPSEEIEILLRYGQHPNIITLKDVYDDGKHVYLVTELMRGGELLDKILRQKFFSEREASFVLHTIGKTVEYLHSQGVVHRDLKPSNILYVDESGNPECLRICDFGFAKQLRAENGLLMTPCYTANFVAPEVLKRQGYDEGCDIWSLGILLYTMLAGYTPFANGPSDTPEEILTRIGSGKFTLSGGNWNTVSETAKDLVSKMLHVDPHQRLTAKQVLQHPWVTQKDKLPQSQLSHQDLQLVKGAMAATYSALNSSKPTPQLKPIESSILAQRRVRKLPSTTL

Legend:
Assay in all cases: kinase-Nluc reporter destabilization hit call (1 = scored as downregulated) (binary); higher = compound decreases kinase abundance
Conditions in all cases: K562, 2-18 h
PDPK1 = PDPK1 (UniProt O15530)
PIK4CA = PIK4CA (UniProt P42356)
PIK4CB = PIK4CB (UniProt Q9UBF8)
PLK1 = PLK1 (UniProt P53350)
PRKCA = PRKCA (UniProt P17252)
PTK2 = PTK2 (UniProt Q05397)
PTK2B = PTK2B (UniProt Q14289)
RAF1 = RAF1 (UniProt P04049)
[1] = target: RAF1_S257L (clone: RAF1_mut) (UniProt P04049)
RET = RET (UniProt P07949)
[2] = target: RET_M918T (clone: RET_mut) (UniProt P07949)
RIOK1 = RIOK1 (UniProt Q9BRS2)
RIPK1 = RIPK1 (UniProt Q13546)
RIPK2 = RIPK2 (UniProt O43353)
ROR2 = ROR2 (UniProt Q01974)
RPS6KA1 = RPS6KA1 (UniProt Q15418)
SPHK1 = SPHK1 (UniProt Q9NYA1)
SRC = SRC (UniProt P12931)
STK24 = STK24 (UniProt Q9Y6E0)
PRKAA1 = PRKAA1 (UniProt Q13131)

Measured: kinase-Nluc reporter destabilization hit call

CC1(C)C(=O)N([C@H]2CCc3c(O)cccc32)c2nc(Nc3cccc(CN4CCCC4)c3)ncc21
inactive: PDPK1; 2.5 µM 0 | PIK4CA; 2.5 µM 0 | PIK4CB; 2.5 µM 0 | PLK1; 2.5 µM 0 | PRKCA; 2.5 µM 0 | PTK2; 2.5 µM 0 | PTK2B; 2.5 µM 0 | RAF1; 2.5 µM 0 | [1]; 2.5 µM 0 | RET; 2.5 µM 0 | [2]; 2.5 µM 0 | RIOK1; 2.5 µM 0 | RIPK1; 2.5 µM 0 | RIPK2; 2.5 µM 0 | ROR2; 2.5 µM 0 | RPS6KA1; 2.5 µM 0 | SPHK1; 2.5 µM 0 | SRC; 2.5 µM 0 | STK24; 2.5 µM 0

Cn1cc(/C=C2\C(=O)Nc3cccnc32)c2ccccc21
inactive: PDPK1; 10 µM 0 | PIK4CA; 10 µM 0 | PIK4CB; 10 µM 0 | PLK1; 10 µM 0 | PRKAA1; 10 µM 0 | PRKCA; 10 µM 0 | PTK2; 10 µM 0 | PTK2B; 10 µM 0 | RAF1; 10 µM 0 | [1]; 10 µM 0 | RIOK1; 10 µM 0 | ROR2; 10 µM 0 | RPS6KA1; 10 µM 0 | SPHK1; 10 µM 0 | SRC; 10 µM 0 | STK24; 10 µM 0

CN1CCN(c2ccc3nc(-c4c(N)c5c(F)cccc5[nH]c4=O)[nH]c3c2)CC1 [Dovitinib (lactate)]
inactive: PDPK1; 2.5 µM 0 | PIK4CA; 2.5 µM 0 | PIK4CB; 2.5 µM 0 | PLK1; 2.5 µM 0 | PRKAA1; 2.5 µM 0 | PRKCA; 2.5 µM 0 | PTK2B; 2.5 µM 0 | RAF1; 2.5 µM 0 | [1]; 2.5 µM 0 | RIOK1; 2.5 µM 0 | RIPK1; 2.5 µM 0 | RIPK2; 2.5 µM 0 | ROR2; 2.5 µM 0 | RPS6KA1; 2.5 µM 0 | SPHK1; 2.5 µM 0 | SRC; 2.5 µM 0 | STK24; 2.5 µM 0

C=CC(=O)N1CCC[C@@H](n2nc(-c3ccc(Oc4ccccc4)cc3)c3c(N)ncnc32)C1 [Ibrutinib]
inactive: PDPK1; 2.5 µM 0 | PIK4CA; 2.5 µM 0 | PIK4CB; 2.5 µM 0 | PLK1; 2.5 µM 0 | PRKAA1; 2.5 µM 0 | PRKCA; 2.5 µM 0 | PTK2; 2.5 µM 0 | PTK2B; 2.5 µM 0 | RAF1; 2.5 µM 0 | [1]; 2.5 µM 0 | RET; 2.5 µM 0 | [2]; 2.5 µM 0 | RIOK1; 2.5 µM 0 | RIPK1; 2.5 µM 0 | RIPK2; 2.5 µM 0 | ROR2; 2.5 µM 0 | RPS6KA1; 2.5 µM 0 | SPHK1; 2.5 µM 0 | STK24; 2.5 µM 0

CC[C@@H]1C(=O)N(C)c2cnc(Nc3ccc(C(=O)NC4CCN(C)CC4)cc3OC)nc2N1C1CCCC1
inactive: PDPK1; 10 µM 0 | PIK4CA; 10 µM 0 | PIK4CB; 10 µM 0 | PRKAA1; 10 µM 0 | PRKCA; 10 µM 0 | PTK2; 10 µM 0 | PTK2B; 10 µM 0 | RAF1; 10 µM 0 | [1]; 10 µM 0 | RET; 10 µM 0 | [2]; 10 µM 0 | RIOK1; 10 µM 0 | RIPK1; 10 µM 0 | RIPK2; 10 µM 0 | ROR2; 10 µM 0 | RPS6KA1; 10 µM 0 | SPHK1; 10 µM 0 | SRC; 10 µM 0 | STK24; 10 µM 0

Nc1ncnc2c1c(-c1cnc3[nH]ccc3c1)nn2C1CCCC1
inactive: PDPK1; 2.5 µM 0 | PIK4CA; 2.5 µM 0 | PIK4CB; 2.5 µM 0 | PLK1; 2.5 µM 0 | PRKAA1; 2.5 µM 0 | PRKCA; 2.5 µM 0 | PTK2; 2.5 µM 0 | PTK2B; 2.5 µM 0 | RAF1; 2.5 µM 0 | [1]; 2.5 µM 0 | RET; 2.5 µM 0 | [2]; 2.5 µM 0 | RIOK1; 2.5 µM 0 | RIPK1; 2.5 µM 0 | RIPK2; 2.5 µM 0 | ROR2; 2.5 µM 0 | RPS6KA1; 2.5 µM 0 | SPHK1; 2.5 µM 0 | STK24; 2.5 µM 0

C[C@@]1(C(=O)Nc2ccc(F)nc2)CCCN1c1nc(Nc2cc(C3CC3)n[nH]2)c2cccn2n1
inactive: PDPK1; 10 µM 0 | PIK4CA; 10 µM 0 | PIK4CB; 10 µM 0 | PLK1; 10 µM 0 | PRKAA1; 10 µM 0 | PRKCA; 10 µM 0 | PTK2; 10 µM 0 | PTK2B; 10 µM 0 | RAF1; 10 µM 0 | [1]; 10 µM 0 | RIOK1; 10 µM 0 | RIPK1; 10 µM 0 | RIPK2; 10 µM 0 | ROR2; 10 µM 0 | RPS6KA1; 10 µM 0 | SPHK1; 10 µM 0 | STK24; 10 µM 0

Three structures out of the list, arranged by molecular weight, falling:
CC[C@@H]1C(=O)N(C)c2cnc(Nc3ccc(C(=O)NC4CCN(C)CC4)cc3OC)nc2N1C1CCCC1
inactive: PDPK1; 10 µM 0 | PIK4CA; 10 µM 0 | PIK4CB; 10 µM 0 | PRKAA1; 10 µM 0 | PRKCA; 10 µM 0 | PTK2; 10 µM 0 | PTK2B; 10 µM 0 | RAF1; 10 µM 0 | [1]; 10 µM 0 | RET; 10 µM 0 | [2]; 10 µM 0 | RIOK1; 10 µM 0 | RIPK1; 10 µM 0 | RIPK2; 10 µM 0 | ROR2; 10 µM 0 | RPS6KA1; 10 µM 0 | SPHK1; 10 µM 0 | SRC; 10 µM 0 | STK24; 10 µM 0

C[C@@]1(C(=O)Nc2ccc(F)nc2)CCCN1c1nc(Nc2cc(C3CC3)n[nH]2)c2cccn2n1
inactive: PDPK1; 10 µM 0 | PIK4CA; 10 µM 0 | PIK4CB; 10 µM 0 | PLK1; 10 µM 0 | PRKAA1; 10 µM 0 | PRKCA; 10 µM 0 | PTK2; 10 µM 0 | PTK2B; 10 µM 0 | RAF1; 10 µM 0 | [1]; 10 µM 0 | RIOK1; 10 µM 0 | RIPK1; 10 µM 0 | RIPK2; 10 µM 0 | ROR2; 10 µM 0 | RPS6KA1; 10 µM 0 | SPHK1; 10 µM 0 | STK24; 10 µM 0

Nc1ncnc2c1c(-c1cnc3[nH]ccc3c1)nn2C1CCCC1
inactive: PDPK1; 2.5 µM 0 | PIK4CA; 2.5 µM 0 | PIK4CB; 2.5 µM 0 | PLK1; 2.5 µM 0 | PRKAA1; 2.5 µM 0 | PRKCA; 2.5 µM 0 | PTK2; 2.5 µM 0 | PTK2B; 2.5 µM 0 | RAF1; 2.5 µM 0 | [1]; 2.5 µM 0 | RET; 2.5 µM 0 | [2]; 2.5 µM 0 | RIOK1; 2.5 µM 0 | RIPK1; 2.5 µM 0 | RIPK2; 2.5 µM 0 | ROR2; 2.5 µM 0 | RPS6KA1; 2.5 µM 0 | SPHK1; 2.5 µM 0 | STK24; 2.5 µM 0

Next part.

Cc1cc2ncnn2cc1Nc1ncc2c(n1)n(C1CCOCC1)c(=O)n2C
inactive: PDPK1; 10 µM 0 | PIK4CA; 10 µM 0 | PIK4CB; 10 µM 0 | PLK1; 10 µM 0 | PRKAA1; 10 µM 0 | PRKCA; 10 µM 0 | PTK2; 10 µM 0 | PTK2B; 10 µM 0 | [1]; 10 µM 0 | RIOK1; 10 µM 0 | RIPK1; 10 µM 0 | RIPK2; 10 µM 0 | ROR2; 10 µM 0 | RPS6KA1; 10 µM 0 | SPHK1; 10 µM 0 | SRC; 10 µM 0 | STK24; 10 µM 0

COc1cc2/c(=N/c3ccc(Br)cc3F)nc[nH]c2cc1OCC1CCN(C)CC1 [Vandetanib]
inactive: PDPK1; 2.5 µM 0 | PIK4CA; 2.5 µM 0 | PIK4CB; 2.5 µM 0 | PLK1; 2.5 µM 0 | PRKAA1; 2.5 µM 0 | PRKCA; 2.5 µM 0 | PTK2; 2.5 µM 0 | PTK2B; 2.5 µM 0 | RAF1; 2.5 µM 0 | [1]; 2.5 µM 0 | RIOK1; 2.5 µM 0 | RIPK1; 2.5 µM 0 | RIPK2; 2.5 µM 0 | ROR2; 2.5 µM 0 | RPS6KA1; 2.5 µM 0 | SPHK1; 2.5 µM 0 | SRC; 2.5 µM 0 | STK24; 2.5 µM 0

CC1(C)CNc2cc(NC(=O)c3cccnc3NCc3ccncc3)ccc21 [Motesanib]
inactive: PDPK1; 2.5 µM 0 | PIK4CA; 2.5 µM 0 | PIK4CB; 2.5 µM 0 | PLK1; 2.5 µM 0 | PRKAA1; 2.5 µM 0 | PRKCA; 2.5 µM 0 | PTK2; 2.5 µM 0 | PTK2B; 2.5 µM 0 | RAF1; 2.5 µM 0 | [1]; 2.5 µM 0 | RIOK1; 2.5 µM 0 | RIPK1; 2.5 µM 0 | RIPK2; 2.5 µM 0 | ROR2; 2.5 µM 0 | RPS6KA1; 2.5 µM 0 | SPHK1; 2.5 µM 0 | SRC; 2.5 µM 0 | STK24; 2.5 µM 0
